{"source": "PubChem BioAssay AID493246 (Drosophila RNAi Screening Center, 2011)", "test": "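Genes fly cells need to grow and stay alive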 (primary screen)", "system": "Drosophila Kc and S2R+ cells", "reagents": "long dsRNA against Drosophila genes", "measurement": "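Raw, unnormalised count of remaining cells in each well; per-plate z-scores of cell number underlie the calls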", "reading the numbers": "Kc cell number and S2R+ cell number: higher = more cells remaining", "active means": "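Counted as a hit if cell number falls by a z-score of at least 3 within its plate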", "note": "In all, the deposit lists about 21,000 reagents; shown is an unselected part of those that have a named target and a result. Over the whole deposit, 429 (2%) got an active call. 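Values are raw and not normalised between plates; calls rest on per-plate z-scores that were not deposited.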 The numbers tell different reagents against one gene apart. Names joined by + are all predicted targets of the reagent. The record does not give: the amount of reagent, the time to read-out."}
{"Target gene": "CG2003", "reagent no.": 1, "Kc cell number, rep 1": 1.50e6, "Kc cell number, rep 2": 1.50e6, "S2R+ cell number, rep 1": 1.01e6, "S2R+ cell number, rep 2": 1.12e6, "activity call": "inactive"}
{"Target gene": "CG43317", "reagent no.": 1, "Kc cell number, rep 1": 1.29e6, "Kc cell number, rep 2": 1.32e6, "S2R+ cell number, rep 1": 1.14e6, "S2R+ cell number, rep 2": 1.30e6, "activity call": "inactive"}
{"Target gene": "CG31231", "reagent no.": 1, "Kc cell number, rep 1": 1.49e6, "Kc cell number, rep 2": 1.44e6, "S2R+ cell number, rep 1": 1.06e6, "S2R+ cell number, rep 2": 1.20e6, "activity call": "inactive"}
{"Target gene": "CG11095", "reagent no.": 1, "Kc cell number, rep 1": 5.99e5, "S2R+ cell number, rep 1": 8.39e5, "activity call": "inactive"}
{"Target gene": "Ada3 (transcriptional Adaptor 3)", "reagent no.": 1, "Kc cell number, rep 1": 1.50e6, "Kc cell number, rep 2": 1.49e6, "S2R+ cell number, rep 1": 1.10e6, "S2R+ cell number, rep 2": 1.19e6, "activity call": "inactive"}
{"Target gene": "Ada3 (transcriptional Adaptor 3)", "reagent no.": 2, "Kc cell number, rep 1": 1.30e6, "Kc cell number, rep 2": 1.45e6, "S2R+ cell number, rep 1": 1.08e6, "S2R+ cell number, rep 2": 1.08e6, "activity call": "inactive"}
{"Target gene": "ND-B17.2 (NADH dehydrogenase (ubiquinone) B17.2 subunit)", "reagent no.": 1, "Kc cell number, rep 1": 1.62e6, "Kc cell number, rep 2": 1.62e6, "S2R+ cell number, rep 1": 1.07e6, "S2R+ cell number, rep 2": 1.17e6, "activity call": "inactive"}
{"Target gene": "CG14610 + asRNA:CR42738", "reagent no.": 1, "Kc cell number, rep 1": 1.64e6, "Kc cell number, rep 2": 1.87e6, "S2R+ cell number, rep 1": 1.23e6, "S2R+ cell number, rep 2": 1.36e6, "activity call": "inactive"}
{"Target gene": "Aef1 (Adult enhancer factor 1)", "reagent no.": 1, "Kc cell number, rep 1": 1.43e6, "Kc cell number, rep 2": 1.48e6, "S2R+ cell number, rep 1": 1.28e6, "S2R+ cell number, rep 2": 1.39e6, "activity call": "inactive"}
{"Target gene": "gwl (greatwall)", "reagent no.": 1, "Kc cell number, rep 1": 1.61e6, "Kc cell number, rep 2": 1.71e6, "S2R+ cell number, rep 1": 1.14e6, "S2R+ cell number, rep 2": 1.23e6, "activity call": "inactive"}

3 consecutive reagents already listed:
{"Target gene": "CG11095", "reagent no.": 1, "Kc cell number, rep 1": 5.99e5, "S2R+ cell number, rep 1": 8.39e5, "activity call": "inactive"}
{"Target gene": "Ada3 (transcriptional Adaptor 3)", "reagent no.": 1, "Kc cell number, rep 1": 1.50e6, "Kc cell number, rep 2": 1.49e6, "S2R+ cell number, rep 1": 1.10e6, "S2R+ cell number, rep 2": 1.19e6, "activity call": "inactive"}
{"Target gene": "Ada3 (transcriptional Adaptor 3)", "reagent no.": 2, "Kc cell number, rep 1": 1.30e6, "Kc cell number, rep 2": 1.45e6, "S2R+ cell number, rep 1": 1.08e6, "S2R+ cell number, rep 2": 1.08e6, "activity call": "inactive"}

The listing continues.
{"Target gene": "sta (stubarista)", "reagent no.": 1, "Kc cell number, rep 1": 1.28e6, "Kc cell number, rep 2": 1.31e6, "S2R+ cell number, rep 1": 7.50e5, "S2R+ cell number, rep 2": 9.32e5, "activity call": "inactive"}
{"Target gene": "CG33702", "reagent no.": 1, "Kc cell number, rep 1": 1.49e6, "Kc cell number, rep 2": 1.64e6, "S2R+ cell number, rep 1": 1.15e6, "S2R+ cell number, rep 2": 1.32e6, "activity call": "inactive"}
{"Target gene": "GluRIB + CG42509 (retired record)", "reagent no.": 1, "Kc cell number, rep 1": 1.62e6, "Kc cell number, rep 2": 1.75e6, "S2R+ cell number, rep 1": 1.17e6, "S2R+ cell number, rep 2": 1.41e6, "activity call": "inactive"}
{"Target gene": "GluRIB + CG42509 (retired record)", "reagent no.": 2, "Kc cell number, rep 1": 1.60e6, "Kc cell number, rep 2": 1.63e6, "S2R+ cell number, rep 1": 1.23e6, "S2R+ cell number, rep 2": 1.31e6, "activity call": "inactive"}
{"Target gene": "CG4757", "reagent no.": 1, "Kc cell number, rep 1": 1.62e6, "Kc cell number, rep 2": 1.56e6, "S2R+ cell number, rep 1": 1.25e6, "S2R+ cell number, rep 2": 1.36e6, "activity call": "inactive"}
{"Target gene": "CG32679", "reagent no.": 1, "Kc cell number, rep 1": 1.14e6, "Kc cell number, rep 2": 1.45e6, "S2R+ cell number, rep 1": 1.12e6, "S2R+ cell number, rep 2": 1.15e6, "activity call": "inactive"}
{"Target gene": "CG12702", "reagent no.": 1, "Kc cell number, rep 1": 1.55e6, "Kc cell number, rep 2": 1.61e6, "S2R+ cell number, rep 1": 9.93e5, "S2R+ cell number, rep 2": 1.14e6, "activity call": "inactive"}
{"Target gene": "CG17580", "reagent no.": 1, "Kc cell number, rep 1": 1.73e6, "Kc cell number, rep 2": 1.70e6, "S2R+ cell number, rep 1": 1.32e6, "S2R+ cell number, rep 2": 1.47e6, "activity call": "inactive"}
{"Target gene": "CG10513", "reagent no.": 1, "Kc cell number, rep 1": 5.92e5, "S2R+ cell number, rep 1": 7.56e5, "activity call": "inactive"}
{"Target gene": "CG18467", "reagent no.": 1, "Kc cell number, rep 1": 1.78e6, "Kc cell number, rep 2": 1.85e6, "S2R+ cell number, rep 1": 1.35e6, "S2R+ cell number, rep 2": 1.53e6, "activity call": "inactive"}
{"Target gene": "CG17327", "reagent no.": 1, "Kc cell number, rep 1": 1.19e6, "Kc cell number, rep 2": 1.23e6, "S2R+ cell number, rep 1": 9.05e5, "S2R+ cell number, rep 2": 1.09e6, "activity call": "inactive"}
{"Target gene": "CG12377 (retired record)", "reagent no.": 1, "Kc cell number, rep 1": 1.78e6, "Kc cell number, rep 2": 2.01e6, "S2R+ cell number, rep 1": 1.37e6, "S2R+ cell number, rep 2": 1.34e6, "activity call": "inactive"}
{"Target gene": "CG12377 (retired record)", "reagent no.": 2, "Kc cell number, rep 1": 1.81e6, "Kc cell number, rep 2": 1.94e6, "S2R+ cell number, rep 1": 1.32e6, "S2R+ cell number, rep 2": 1.42e6, "activity call": "inactive"}
{"Target gene": "dy (dusky)", "reagent no.": 1, "Kc cell number, rep 1": 1.68e6, "Kc cell number, rep 2": 1.88e6, "S2R+ cell number, rep 1": 1.12e6, "S2R+ cell number, rep 2": 1.27e6, "activity call": "inactive"}
{"Target gene": "vri (vrille)", "reagent no.": 1, "Kc cell number, rep 1": 1.47e6, "Kc cell number, rep 2": 1.47e6, "S2R+ cell number, rep 1": 8.93e5, "S2R+ cell number, rep 2": 1.04e6, "activity call": "inactive"}
{"Target gene": "Cdc42 (Cell division cycle 42)", "reagent no.": 1, "Kc cell number, rep 1": 1.34e6, "Kc cell number, rep 2": 1.37e6, "S2R+ cell number, rep 1": 9.96e5, "S2R+ cell number, rep 2": 1.16e6, "activity call": "inactive"}
{"Target gene": "l(3)87Df (lethal (3) 87Df)", "reagent no.": 1, "Kc cell number, rep 1": 1.52e6, "Kc cell number, rep 2": 1.53e6, "S2R+ cell number, rep 1": 1.01e6, "S2R+ cell number, rep 2": 1.14e6, "activity call": "inactive"}
